# Data reported in the supplement of paper PMC4604168 (melanoma cell lines).
# The other results are listed elsewhere or left out. Many values rest on one well or one pass, so single values are uncertain.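 Cells were imaged in 1,536-well plates, and nuclei stained with an antibody against cleaved PARP were counted against all DNA-stained nuclei to give the apoptosis fraction. Screening doses were chosen to leave most cells alive, and resting and induced cleaved-PARP levels differ strongly between cell lines.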
# What was measured:
# Test in all cases: cleaved PARP positive nuclei fraction relative to DMSO control; melanoma cells; higher = more apoptosis
# Details in all cases: library dose: low library concentration; 72 h
# MZ2-MEL = tested on: MZ2-MEL
# MeWo = tested on: MeWo
# RPMI7951 = tested on: RPMI7951
# RVH-421 = tested on: RVH-421
# SkMel28 = tested on: SkMel28
# SkMel2 = tested on: SkMel2
# SkMel30 = tested on: SkMel30
# SkMel5 = tested on: SkMel5
# UACC257 = tested on: UACC257
# UACC62 = tested on: UACC62
# WM115 = tested on: WM115
# WM1716 = tested on: WM1716
# WM1745 = tested on: WM1745
# WM3526 = tested on: WM3526
# WM3619 = tested on: WM3619
# WM451Lu = tested on: WM451Lu
SMILES,cleaved PARP positive nuclei fraction (MZ2-MEL) [%],cleaved PARP positive nuclei fraction (MeWo) [%],cleaved PARP positive nuclei fraction (RPMI7951) [%],cleaved PARP positive nuclei fraction (RVH-421) [%],cleaved PARP positive nuclei fraction (SkMel28) [%],cleaved PARP positive nuclei fraction (SkMel2) [%],cleaved PARP positive nuclei fraction (SkMel30) [%],cleaved PARP positive nuclei fraction (SkMel5) [%],cleaved PARP positive nuclei fraction (UACC257) [%],cleaved PARP positive nuclei fraction (UACC62) [%],cleaved PARP positive nuclei fraction (WM115) [%],cleaved PARP positive nuclei fraction (WM1716) [%],cleaved PARP positive nuclei fraction (WM1745) [%],cleaved PARP positive nuclei fraction (WM3526) [%],cleaved PARP positive nuclei fraction (WM3619) [%],cleaved PARP positive nuclei fraction (WM451Lu) [%]
"Cc1cc(Nc2cc(N3CCN(C)CC3)nc(/C=C/c3ccccc3)n2)n[nH]1 + O=C(O)C(=O)Nc1sc2c(c1C(=O)O)CCNC2 [TCS401] (first compound 0.04 µM, partner dose 1.66667 µM)",97.4,35.6,30.5,145,182,162,19.5,92,507,151,152,25,99.9,88.2,109,41.4
"CNC(=O)c1cc(Oc2ccc(NC(=O)Nc3ccc(Cl)c(C(F)(F)F)c3)cc2)ccn1 [sorafenib] + Cn1cncc1[C@@](N)(c1ccc(Cl)cc1)c1ccc2c(c1)c(-c1cccc(Cl)c1)cc(=O)n2C [tipifarnib] (first compound 0.4 µM, partner dose 0.01 µM)",104,111,49,102,85.4,156,165,59.2,156,125,85,31,100,1180,83.5,381
"Nc1ccn([C@@H]2O[C@H](CO)[C@@H](O)C2(F)F)c(=O)n1 [gemcitabine] + CN(C)S(=O)(=O)c1ccc2c(c1)/C(=C/c1cc3c([nH]1)CCCC3)C(=O)N2 [SU6656] (first compound 0.0004 µM, partner dose 0.4 µM)",199,115,95.4,68.2,273,54.7,174,48.8,89.5,55.2,44.1,51.3,122,118,110,95.3
"Cn1c(=O)n(-c2ccc(C(C)(C)C#N)cc2)c2c3cc(-c4cnc5ccccc5c4)ccc3ncc21 + O=S(=O)(c1ccccc1)N(CC(F)(F)F)c1ccc(C(O)(C(F)(F)F)C(F)(F)F)cc1 [T0901317] (first compound 0.004 µM, partner dose 1.4 µM)",85.5,47.8,85.8,207,94.8,41.1,18.5,227,26.8,561,76.4,56.9,98.9,42.9,75.2,182
"C[C@@H](Oc1cc(-c2cnn(C3CCNCC3)c2)cnc1N)c1c(Cl)ccc(F)c1Cl [Crizotinib] + CN(C)S(=O)(=O)c1ccc2c(c1)/C(=C/c1cc3c([nH]1)CCCC3)C(=O)N2 [SU6656] (first compound 0.2 µM, partner dose 0.4 µM)",74.5,126,391,59.1,36.3,34.3,211,76.6,96.8,42.2,97,73.7,98.1,61.5,91.6,166
"Nc1nc(F)nc2c1ncn2[C@@H]1O[C@H](CO)[C@@H](O)[C@@H]1O [fludarabine] + COc1ccc(COc2ccc(Cc3cnc(N)nc3N)cc2OC)cc1 [GW2580] (first compound 0.2 µM, partner dose 1 µM)",112,361,133,45.5,81.4,995,224,197,179,53.9,123,54.4,86.5,197,98.2,70.3
"CCCS(=O)(=O)Nc1ccc(F)c(C(=O)c2c[nH]c3ncc(Cl)cc23)c1F + c1cc(-c2cnn3cc(-c4ccc(OCCN5CCCCC5)cc4)cnc23)ccn1 [Dorsomorphin] (first compound 0.08 µM, partner dose 0.4 µM)",52.7,78,27.9,135,281,18.7,329,69,107,155,54.3,91.6,82,233,121,34.8
"O=C(O)[C@@H]1[O][Sb](=[O])([O][Sb]2(=[O])[O][C@H]([C@H](O)CO)[C@H](O)[C@H](C(=O)O)[O]2)[O][C@H]([C@H](O)CO)[C@@H]1O (some centres undefined) [stibogluconate] + CC(C)CCN1c2nc(Nc3cc(F)c(O)c(F)c3)ncc2N(C)C(=O)C1C [BID1870] (first compound 2 µM, partner dose 0.2 µM)",98.8,190,133,68.8,34.2,75.7,65.4,70.5,19.4,108,107,62,77.5,64,88.7,75.4
"C=C(c1ccc(C(=O)O)cc1)c1cc2c(cc1C)C(C)(C)CCC2(C)C [Bexarotene] + C=CCn1c(=O)c2cnc(Nc3ccc(N4CCN(C)CC4)cc3)nc2n1-c1cccc(C(C)(C)O)n1 [MK1775] (first compound 2 µM, partner dose 0.02 µM)",19.6,107,128,87,160,36.2,62.3,71.3,87.8,154,132,112,98.6,110,198,124

# Only cleaved PARP positive nuclei fraction (RVH-421) [%], for some of the entries so far:
SMILES	cleaved PARP positive nuclei fraction (RVH-421) [%]
CNC(=O)c1cc(Oc2ccc(NC(=O)Nc3ccc(Cl)c(C(F)(F)F)c3)cc2)ccn1 [sorafenib] + Cn1cncc1[C@@](N)(c1ccc(Cl)cc1)c1ccc2c(c1)c(-c1cccc(Cl)c1)cc(=O)n2C [tipifarnib] (first compound 0.4 µM, partner dose 0.01 µM)	102
Nc1ccn([C@@H]2O[C@H](CO)[C@@H](O)C2(F)F)c(=O)n1 [gemcitabine] + CN(C)S(=O)(=O)c1ccc2c(c1)/C(=C/c1cc3c([nH]1)CCCC3)C(=O)N2 [SU6656] (first compound 0.0004 µM, partner dose 0.4 µM)	68.2
